Measured values published in PMC5561092.
These are yes or no findings as the source states them, for the method shown. In cells and extracts the contact can be indirect. Some binding calls cover weakened binding; strength is not graded here. For some of these results: Tags and fused reporters may be left off the sequences shown.

Chains of the proteins cited; added tags and fusions are not shown.
UniProt P36012: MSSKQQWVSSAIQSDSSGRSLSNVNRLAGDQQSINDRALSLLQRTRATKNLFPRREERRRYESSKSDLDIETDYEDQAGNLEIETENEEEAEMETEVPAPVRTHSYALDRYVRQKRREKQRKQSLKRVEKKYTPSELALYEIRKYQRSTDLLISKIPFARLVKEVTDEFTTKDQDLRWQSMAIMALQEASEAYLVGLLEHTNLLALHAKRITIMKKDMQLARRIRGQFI
UniProt P19812: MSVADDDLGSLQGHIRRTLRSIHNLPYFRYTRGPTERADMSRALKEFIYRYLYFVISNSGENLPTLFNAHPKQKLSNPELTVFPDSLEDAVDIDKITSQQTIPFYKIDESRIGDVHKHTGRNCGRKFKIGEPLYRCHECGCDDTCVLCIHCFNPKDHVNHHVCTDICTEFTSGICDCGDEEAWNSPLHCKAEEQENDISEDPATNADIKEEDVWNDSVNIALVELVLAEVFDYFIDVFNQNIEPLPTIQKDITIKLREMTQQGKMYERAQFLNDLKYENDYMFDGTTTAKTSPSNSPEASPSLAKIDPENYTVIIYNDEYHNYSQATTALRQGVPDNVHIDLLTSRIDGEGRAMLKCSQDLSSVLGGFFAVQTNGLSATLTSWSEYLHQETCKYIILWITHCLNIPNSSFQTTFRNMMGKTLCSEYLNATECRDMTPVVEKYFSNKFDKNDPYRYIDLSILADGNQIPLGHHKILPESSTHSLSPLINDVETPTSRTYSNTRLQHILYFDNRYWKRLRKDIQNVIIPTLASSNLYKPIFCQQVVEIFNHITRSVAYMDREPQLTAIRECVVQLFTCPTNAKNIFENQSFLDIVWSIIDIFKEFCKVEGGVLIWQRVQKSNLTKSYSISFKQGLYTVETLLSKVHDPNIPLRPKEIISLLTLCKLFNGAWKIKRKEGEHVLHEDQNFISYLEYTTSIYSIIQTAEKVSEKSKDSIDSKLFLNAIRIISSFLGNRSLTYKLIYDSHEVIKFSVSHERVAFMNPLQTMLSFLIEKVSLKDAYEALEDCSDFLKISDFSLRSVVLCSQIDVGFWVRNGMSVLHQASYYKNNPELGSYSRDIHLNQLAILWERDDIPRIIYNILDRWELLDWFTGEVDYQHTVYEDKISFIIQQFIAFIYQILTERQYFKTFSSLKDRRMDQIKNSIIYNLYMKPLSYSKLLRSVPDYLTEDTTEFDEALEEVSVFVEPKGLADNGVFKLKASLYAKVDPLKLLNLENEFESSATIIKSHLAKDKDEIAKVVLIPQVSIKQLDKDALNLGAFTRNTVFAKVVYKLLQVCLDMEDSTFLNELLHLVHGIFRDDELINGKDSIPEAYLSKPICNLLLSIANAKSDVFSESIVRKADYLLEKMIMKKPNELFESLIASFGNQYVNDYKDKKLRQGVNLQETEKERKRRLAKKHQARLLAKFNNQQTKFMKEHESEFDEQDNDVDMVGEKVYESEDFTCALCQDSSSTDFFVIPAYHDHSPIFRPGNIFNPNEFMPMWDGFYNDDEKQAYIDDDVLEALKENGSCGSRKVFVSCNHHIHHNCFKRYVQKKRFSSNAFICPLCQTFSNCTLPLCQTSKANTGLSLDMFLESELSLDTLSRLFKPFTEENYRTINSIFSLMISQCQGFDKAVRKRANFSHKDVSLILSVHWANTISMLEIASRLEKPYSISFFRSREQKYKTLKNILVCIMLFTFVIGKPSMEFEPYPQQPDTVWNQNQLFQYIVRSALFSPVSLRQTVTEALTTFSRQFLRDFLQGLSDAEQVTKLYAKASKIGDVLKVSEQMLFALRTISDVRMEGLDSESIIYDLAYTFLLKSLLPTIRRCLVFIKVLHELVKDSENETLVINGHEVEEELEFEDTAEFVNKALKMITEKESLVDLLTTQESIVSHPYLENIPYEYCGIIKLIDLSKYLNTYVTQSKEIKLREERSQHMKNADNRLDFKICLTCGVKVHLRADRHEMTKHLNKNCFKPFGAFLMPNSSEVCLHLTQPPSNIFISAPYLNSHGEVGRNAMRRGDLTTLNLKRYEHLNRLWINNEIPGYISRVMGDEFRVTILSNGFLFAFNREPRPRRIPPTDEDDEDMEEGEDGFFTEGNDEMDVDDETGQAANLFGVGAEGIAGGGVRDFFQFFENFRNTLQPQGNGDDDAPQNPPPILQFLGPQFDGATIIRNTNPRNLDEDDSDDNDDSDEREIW

What was measured:
Assay in all cases: co-IP; extracts of yeast cells co-expressing the two tagged proteins from plasmids, incubated with IgG beads coated with HA or Flag antibody; SDS-PAGE and western blotting with Flag or HA antibody; both directions
[1] = biological target: T1, HA-tagged Slx5 (S. cerevisiae) (UniProt P32828)
T1 sequence: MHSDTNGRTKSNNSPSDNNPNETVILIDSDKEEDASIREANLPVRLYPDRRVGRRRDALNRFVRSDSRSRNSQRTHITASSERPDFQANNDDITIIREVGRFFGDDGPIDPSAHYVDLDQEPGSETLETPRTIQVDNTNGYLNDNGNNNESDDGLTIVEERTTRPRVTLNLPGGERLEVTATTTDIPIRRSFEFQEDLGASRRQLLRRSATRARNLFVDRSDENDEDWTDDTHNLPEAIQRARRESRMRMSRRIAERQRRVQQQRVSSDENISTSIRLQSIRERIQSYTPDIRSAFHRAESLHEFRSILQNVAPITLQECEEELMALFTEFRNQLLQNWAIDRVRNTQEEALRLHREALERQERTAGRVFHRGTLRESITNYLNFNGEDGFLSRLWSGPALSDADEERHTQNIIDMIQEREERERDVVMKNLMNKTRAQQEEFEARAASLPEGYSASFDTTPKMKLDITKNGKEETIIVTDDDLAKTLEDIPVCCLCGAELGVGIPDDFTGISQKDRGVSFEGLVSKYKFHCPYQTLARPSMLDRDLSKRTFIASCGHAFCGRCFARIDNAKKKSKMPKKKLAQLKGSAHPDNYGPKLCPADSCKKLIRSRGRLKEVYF

[2] = biological target: HA-tagged Cse4 (S. cerevisiae) (UniProt P36012)
[3] = biological target: Flag-tagged Ubr1 (S. cerevisiae) (UniProt P19812)
[4] = biological target: Flag-Cse4 (S. cerevisiae) (UniProt P36012)

Flag-Cse4 (from UniProt P36012 1-229)
binding [1]: binds

Flag-tagged Ubr1 (from UniProt P19812 1-1950) (enzyme)
binding [2]: binds

HA-tagged Cse4 (from UniProt P36012 1-229)
binding [3]: binds

B1: HA-tagged Slx5 (enzyme, UniProt P32828 1-619)
chain: MHSDTNGRTKSNNSPSDNNPNETVILIDSDKEEDASIREANLPVRLYPDRRVGRRRDALNRFVRSDSRSRNSQRTHITASSERPDFQANNDDITIIREVGRFFGDDGPIDPSAHYVDLDQEPGSETLETPRTIQVDNTNGYLNDNGNNNESDDGLTIVEERTTRPRVTLNLPGGERLEVTATTTDIPIRRSFEFQEDLGASRRQLLRRSATRARNLFVDRSDENDEDWTDDTHNLPEAIQRARRESRMRMSRRIAERQRRVQQQRVSSDENISTSIRLQSIRERIQSYTPDIRSAFHRAESLHEFRSILQNVAPITLQECEEELMALFTEFRNQLLQNWAIDRVRNTQEEALRLHREALERQERTAGRVFHRGTLRESITNYLNFNGEDGFLSRLWSGPALSDADEERHTQNIIDMIQEREERERDVVMKNLMNKTRAQQEEFEARAASLPEGYSASFDTTPKMKLDITKNGKEETIIVTDDDLAKTLEDIPVCCLCGAELGVGIPDDFTGISQKDRGVSFEGLVSKYKFHCPYQTLARPSMLDRDLSKRTFIASCGHAFCGRCFARIDNAKKKSKMPKKKLAQLKGSAHPDNYGPKLCPADSCKKLIRSRGRLKEVYF
binding [4]: binds
